No constants are given. Whether binding was seen depends on the method and setting. Binding seen in cells or lysates may run through a third protein. These calls come from enrichment with a bait or labelling near it, and not all partners need be listed.

By UniProt entry, the sequences of proteins in these tests, tags left out.
UniProt Q66H76: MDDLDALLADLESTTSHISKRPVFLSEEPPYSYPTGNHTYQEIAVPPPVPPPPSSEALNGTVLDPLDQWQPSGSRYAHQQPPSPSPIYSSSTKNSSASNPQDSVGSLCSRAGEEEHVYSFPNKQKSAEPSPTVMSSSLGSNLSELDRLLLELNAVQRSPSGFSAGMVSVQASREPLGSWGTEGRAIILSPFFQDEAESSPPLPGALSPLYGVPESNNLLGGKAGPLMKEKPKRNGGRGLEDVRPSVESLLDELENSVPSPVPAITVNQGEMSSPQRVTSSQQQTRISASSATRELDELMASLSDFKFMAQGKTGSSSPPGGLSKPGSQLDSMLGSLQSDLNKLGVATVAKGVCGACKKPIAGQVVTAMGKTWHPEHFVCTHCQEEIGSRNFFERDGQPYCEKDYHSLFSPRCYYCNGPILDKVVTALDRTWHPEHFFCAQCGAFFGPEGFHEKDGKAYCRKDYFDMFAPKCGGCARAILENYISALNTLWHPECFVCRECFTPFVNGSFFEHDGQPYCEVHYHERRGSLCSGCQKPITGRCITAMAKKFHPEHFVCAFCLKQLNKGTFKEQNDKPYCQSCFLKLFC
UniProt F2Z3T9: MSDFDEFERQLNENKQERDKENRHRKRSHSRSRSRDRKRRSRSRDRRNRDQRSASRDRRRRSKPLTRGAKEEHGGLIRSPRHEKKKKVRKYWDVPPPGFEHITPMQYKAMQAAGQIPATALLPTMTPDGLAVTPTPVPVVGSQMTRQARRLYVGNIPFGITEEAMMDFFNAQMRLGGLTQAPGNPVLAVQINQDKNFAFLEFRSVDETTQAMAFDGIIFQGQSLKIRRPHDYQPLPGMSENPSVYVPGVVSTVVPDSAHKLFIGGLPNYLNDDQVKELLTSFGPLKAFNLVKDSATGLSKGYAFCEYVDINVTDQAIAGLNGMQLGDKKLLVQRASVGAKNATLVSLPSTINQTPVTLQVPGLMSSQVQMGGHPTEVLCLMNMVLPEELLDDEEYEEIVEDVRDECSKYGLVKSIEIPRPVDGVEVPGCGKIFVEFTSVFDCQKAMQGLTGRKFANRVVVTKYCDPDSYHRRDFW

This assay deals with paxillin (endogenous, rat primary neurons) (rat (endogenous in primary neuronal cultures)) (UniProt Q66H76). Nature of the assay: affinity purification with mass spectrometry; paxillin immunoprecipitated (paxillin polyclonal antibodies on protein G) from lysates of DIV7 rat primary neuronal cultures treated with BDNF with or without IPZ pretreatment; SDS-PAGE, in-gel digestion, LC-MS/MS.

Take U2AF2 (rat) (from UniProt F2Z3T9 1-475): the binding result was “binds”.

B1: NOVA1 (protein, UniProt Q80WA4 1-474)
chain: MAAAPIQQNGTHTGVPIDLDPPDSRKRPLEAPPEAGSTKRTNTGEDGQYFLKVLIPSYAAGSIIGKGGQTIVQLQKETGATIKLSKSKDFYPGTTERVCLIQGTIEALNAVHGFIAEKIREMPQNVAKTEPVSILQPQTTVNPDRIKQVKIIVPNSTAGLIIGKGGATVKAIMEQSGAWVQLSQKPDGINLQERVVTVSGEPEQNRKAVELIIQKIQEDPQSGSCLNISYANVTGPVANSNPTGFPYANTAEVLPTAAAAAGLLGHANLAGVAAFPAVLSGFTGNDLVAITSALNTLASYGYNLNTLGLGLSQAAATGALAAAAASANPAAAAANLLATYASEASASGSTAGGTAGTFALGSLAAATAATNGYFGAASPLAASAILGTEKSTDGSKDVVEIAVPENLVGAILGKGGKTLVEYQELTGARIQISKKGEFVPGTRNRKVTITGTPAATQAAQYLITQRITYEQGVR
B1: the binding entry is “binds”.

(Values after article PMC12583701.)
